Target: T1, mouse CAR (mCAR) (Mus musculus, UniProt O35627)
T1 sequence (O35627 1-358): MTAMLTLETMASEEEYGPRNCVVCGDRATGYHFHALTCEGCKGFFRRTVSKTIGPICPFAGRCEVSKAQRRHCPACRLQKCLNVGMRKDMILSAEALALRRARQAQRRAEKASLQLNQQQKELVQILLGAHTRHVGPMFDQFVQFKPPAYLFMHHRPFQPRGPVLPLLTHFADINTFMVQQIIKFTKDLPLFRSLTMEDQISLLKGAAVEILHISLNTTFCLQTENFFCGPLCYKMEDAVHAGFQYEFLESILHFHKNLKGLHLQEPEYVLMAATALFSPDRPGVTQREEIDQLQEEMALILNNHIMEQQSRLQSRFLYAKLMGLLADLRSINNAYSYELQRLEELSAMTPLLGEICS
Experiment: in vitro

In the case of `Clc1ccccc1C(c1ccccc1)(c1ccccc1)n1ccnc1` [clotrimazole], the EC50 is reported as greater than 10 µM.

From patent US6579686B2, “Constitutive androstane receptor” (SmithKline Beecham Corporation, priority 2000, dated 2003)
